According to PubChem BioAssay AID1671190 (National Center for Advancing Translational Sciences (NCATS), 2021):
Hit rate of the full screen: of about 580,000 compounds, about 6,100 (1.1%) were called active. This list was built around the results that the source calls inconclusive (neither active nor inactive); the mix of calls is not that of the screen. The call rests on the fitted dose curve; in most records, active means well fitted inhibition curve with a large enough effect; inconclusive means small, poorly fitted or top-dose-only effect, or another doubt; inactive means no such curve, though single readings can be large or run the other way. Potencies of inconclusive entries are doubtful fits and often do not repeat.

Amino acid sequences for entries named in this document (tags omitted). A change or cut given only in a name is not applied to a line headed by its entry.
UniProt P18054: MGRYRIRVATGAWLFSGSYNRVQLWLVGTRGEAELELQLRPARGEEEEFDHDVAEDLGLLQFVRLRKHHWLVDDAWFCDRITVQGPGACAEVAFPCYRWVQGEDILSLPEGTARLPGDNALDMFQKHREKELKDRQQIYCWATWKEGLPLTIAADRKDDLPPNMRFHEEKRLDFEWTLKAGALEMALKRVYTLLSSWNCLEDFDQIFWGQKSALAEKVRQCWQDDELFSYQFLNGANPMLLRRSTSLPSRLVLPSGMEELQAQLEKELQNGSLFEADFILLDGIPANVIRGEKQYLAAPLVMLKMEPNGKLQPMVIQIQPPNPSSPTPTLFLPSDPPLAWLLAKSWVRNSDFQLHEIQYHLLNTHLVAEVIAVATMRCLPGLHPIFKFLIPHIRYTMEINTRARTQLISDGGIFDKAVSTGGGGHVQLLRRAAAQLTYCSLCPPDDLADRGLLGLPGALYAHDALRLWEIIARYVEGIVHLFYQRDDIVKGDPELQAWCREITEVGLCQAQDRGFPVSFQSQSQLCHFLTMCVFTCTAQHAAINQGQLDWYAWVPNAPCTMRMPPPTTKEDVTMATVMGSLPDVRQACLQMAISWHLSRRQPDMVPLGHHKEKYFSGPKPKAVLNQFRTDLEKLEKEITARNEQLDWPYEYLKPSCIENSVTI

Target: Polyunsaturated fatty acid lipoxygenase ALOX12 (Homo sapiens) (UniProt P18054)
Experiment: Primary qHTS assay for inhibitors of human arachidonate 12S-lipoxygenase (ALOX12): Round 2
Conditions: purified 12hLO, xylenol orange hydroperoxide absorbance; activity change, negative = inhibition: at 108 µM (top of the series) unless noted
Procedure, shortened: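 Purified human 12hLO (150 nM final) in 25 mM Hepes, 0.01% Triton X-100, pH 7.0 was preincubated 15 min at room temperature with compound. Then 40 uM arachidonic acid was added, 30 min. Hydroperoxide was read by Fe-XO absorbance ratio 573/405 nm.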
On the % scale 0 is the no-effect control and ±100 the full control effect; potency means the concentration at half of the fitted maximal effect.

Structure (SMILES)	Potency	activity change, negative = inhibition
COc1ccc(C(=O)NC2CCCc3c2cnn3-c2ccc(C)c(C)c2)c(OC)c1OC (centres undefined)	inactive	
CC(C)OC(=O)c1ccc2nc3ccccc3nc2c1	inconclusive: 112 µM [inhibitor, single point]	
CSc1nsc(/C=C/Nc2cccc(Cl)c2)c1C#N	inconclusive: 39.8 µM [inhibitor, partial curve, poor fit]	
Cn1c(=O)c2c(nc(N/N=C/c3cccs3)n2Cc2ccc(Br)cc2)n(C)c1=O	inconclusive: 22.4 µM [inhibitor, partial curve, poor fit]	
Cc1ccc(CCNC(=O)c2ccc3nc4ccc(Cl)cc4c(=O)n3c2)cc1	inconclusive: 44.7 µM [inhibitor, partial curve, poor fit]	
COc1ccc(-n2nc3c(N4CCC(C(=O)NCCc5ccccc5)CC4)nnc(C)c3c2C)cc1	inactive	
CCn1c(-c2cc3ccccc3cc2O)n[nH]c1=S	inconclusive: 44.7 µM [inhibitor, partial curve, poor fit]	
CCOC(=O)c1cnc(SCC(=O)Nc2nc(C)c(C)s2)nc1N	inconclusive: 0.562 µM [inhibitor, full curve, poor fit]	
S=C1NC(c2ccccc2)N2C(=S)NC(c3ccccc3)N12 (centres undefined)	active: 15.8 µM	
COc1ccc(C(=O)N2CCC3(CC2)NC(=O)N(c2ccc(F)cc2)N3)cc1	inconclusive: 10 µM [inhibitor, full curve]	
CCc1ccc(N2C(=O)N(CC(=O)NC(C)CC)c3ccccc3S2(=O)=O)cc1 (centres undefined)	inactive	
CCCCNC(=O)C1CCN(C/C(C)=C/c2ccccc2)CC1	inconclusive: 31.6 µM [inhibitor, partial curve, poor fit]	
CCCCCn1nnnc1-c1nc2cc3ccccc3cc2[nH]c1=O	inconclusive: 31.6 µM [inhibitor, partial curve, poor fit]	
CC(=O)C1=C(OC(=O)c2ccc(F)cc2)c2ccccc2S(=O)(=O)N1C(C)C	inconclusive: 17.8 µM [inhibitor, full curve, poor fit]	
CNS(=O)(=O)c1cccc(C(=O)NCC2(N3CCCCC3)CCCCC2)c1	inactive	
Cc1ccc(-c2nnc(Nc3ccccc3)c3ccccc23)cc1S(=O)(=O)N1CCN(C)CC1	inactive	
Cc1c(O)ccc2c(CN3CCN(c4ccccc4F)CC3)cc(=O)oc12	inactive	
CC(C)(C)c1ccc(C(=O)N(Cc2ccc(F)cc2)Cc2ccco2)cc1	inactive	
COCCNc1nc2cc(-c3ccccc3OC)sc2c(=O)n1C	inconclusive: 100 µM [inhibitor, partial curve, poor fit]	
CCN1CCN(c2ccc(S(=O)(=O)N3CCOCC3)cc2NC(=O)c2cc(F)c(F)c(F)c2F)CC1	inconclusive: 50.1 µM [inhibitor, partial curve, poor fit]	
O=C(O)C1CC(CCCP(=O)(O)O)CCN1 (centres undefined)	inconclusive: 5.01 µM [inhibitor, full curve, poor fit]	
Cc1cccc(N(CC(=O)NCC2CCCO2)C(=O)CNS(=O)(=O)c2ccc(Cl)cc2)c1 (centres undefined)	inconclusive: 141 µM [inhibitor, partial curve, poor fit]	
O=[N+]([O-])c1ccc(S(=O)(=O)NCC(c2cccnc2)N2CCc3ccccc32)cc1 (centres undefined)	inconclusive: 44.7 µM [inhibitor, partial curve, poor fit]	

Structure (SMILES)	Potency	activity change, negative = inhibition
CCOC(=O)CCc1c(C)c(C#N)c2[nH]c3ccccc3n2c1=O	inconclusive: 35.5 µM [inhibitor, single point]	
N#Cc1ccc(-c2ccc(C3Nc4ccccc4C(=O)N3O)o2)cc1 (centres undefined)	inconclusive: 2.51 µM [inhibitor, full curve, poor fit]	
C=CCNC(=S)NS(=O)(=O)c1cccs1	active: 1.12 µM	
CCNC(=S)NS(=O)(=O)c1ccccc1	inconclusive: 4.47 µM [inhibitor, full curve, poor fit]	
COc1ccc(-c2noc(-c3cccn3CC(=O)NCCc3ccccc3)n2)cc1F	inactive	
CCCS(=O)(=O)c1c(S(=O)(=O)CCC)c2c(N)cccn2c1C(=O)c1ccc(F)cc1	inconclusive: 0.631 µM [inhibitor, full curve, poor fit]	
O/N=C1\CCCc2c1nc(-c1ccc(F)cc1)n2O	inconclusive: 20 µM [inhibitor, partial curve, poor fit]	
O=[S+]1([O-])NCC2(CCCN(Cc3ccc(C(F)(F)F)cc3)C2)Nc2ccccc21 (centres undefined)	inactive	
O=C(Nc1ccc(Cl)cc1)C1CCCN(c2ncnc3nc[nH]c23)C1 (centres undefined)	inactive	
O=c1c2ccccc2sc2cc(Br)ccc12	inconclusive: 0.501 µM [inhibitor, full curve, poor fit]	
CC1CN(CCCCSc2ccc(Cl)cc2)CC(C)O1 (centres undefined)	active: 1.78 µM	
CCOc1ccccc1NC(=O)CN1C(=O)COc2ccc(S(=O)(=O)NC3CCCC3)cc21	inconclusive: 126 µM [inhibitor, partial curve, poor fit]	
Cc1ccc(C)c(C(=O)Nc2ccc(-c3nc4ccc(C)cc4s3)cc2)c1	inactive	
O=C1NC(Cc2ccccc2)c2nc3ccccc3c(=O)n2-c2cc3ccccc3cc21 (centres undefined)		inconclusive: -33.6% [inhibitor]
CCCCCNC(=O)c1cn(CC)c2cc(N3CCN(C)CC3)c(F)cc2c1=O	inactive	
Cc1cc2cc(CN(Cc3ccco3)C(=O)C3CCCCC3)c(=O)[nH]c2cc1C	inconclusive: 112 µM [inhibitor, single point]	
O=C(NC1CCCC1)C(c1ccc(Cl)cc1)N1CCc2ccccc21 (centres undefined)	inconclusive: 31.6 µM [inhibitor, partial curve, poor fit]	
C=CCOC(=O)C1=C[C@@H](c2csc3ccccc23)C[C@@H](OCCCCO)O1	inconclusive: 50.1 µM [inhibitor, partial curve]	
CSc1ccc(/C=C2\N=C(c3ccco3)OC2=O)cc1	inconclusive: 22.4 µM [inhibitor, partial curve, poor fit]	
COc1ccc(OC)c(C2C=C(c3ccc(C)c(C)c3)Nc3nnnn32)c1 (centres undefined)	inconclusive: 35.5 µM [inhibitor, partial curve, poor fit]	
Cc1cccc(Oc2nc(-c3ccccn3)nc3ccccc23)c1	inconclusive: 89.1 µM [inhibitor, partial curve, poor fit]	
O=C1N[C@H](CCC(=O)N2CCC(c3nc4ccccc4[nH]3)CC2)C(=O)Nc2ccccc21	inactive	
Cc1ccc(S(=O)(=O)c2cc(Nc3ccccc3)ccc2O)cc1	inconclusive: 44.7 µM [inhibitor, partial curve, poor fit]	

Structure (SMILES)	Potency	activity change, negative = inhibition
CC(C)NC(=O)c1nc(Cc2c[nH]c3ccccc23)no1	inconclusive: 31.6 µM [inhibitor, single point]	
O=C(CC(c1ccccc1)c1cc(Br)ccc1O)NCCCN1CCOCC1 (centres undefined)	inconclusive: 70.8 µM [inhibitor, partial curve, poor fit]	
C=CCSC1=N/C(=C\c2cc(OCC)c(OC(C)=O)c([N+](=O)[O-])c2)C(=O)S1	inconclusive: 50.1 µM [inhibitor, partial curve, poor fit]	
CC(c1cccc(-c2cnc(C(=O)O)cn2)c1)N1CCCC1 (centres undefined)	inconclusive: 2.51 µM [inhibitor, full curve]	
CN(C)CCN1C(=O)C(O)=C(C(=O)c2ccco2)C1c1ccccc1F (centres undefined)	inconclusive: 5.01 µM [inhibitor, full curve, poor fit]	
Cc1cn2nc(C(=O)NCC(C)c3ccccc3)cc2c(N2CCCC2)n1 (centres undefined)	inconclusive: 3.16 µM [inhibitor, full curve, poor fit]	
CNC(=O)CN(c1cccc2ccccc12)S(C)(=O)=O	inactive	
CC(=O)c1cc2cccc(OC3(C)CCN(Cc4ccc5ccccc5c4)C3)c2o1 (centres undefined)	inconclusive: 56.2 µM [inhibitor, partial curve, poor fit]	
Cc1ccc(OCc2n[nH]c(=S)n2N)cc1C	inconclusive: 44.7 µM [inhibitor, partial curve, poor fit]	
N#CC1=C(N)Oc2cc3ccccc3cc2C1c1cccnc1 (centres undefined)	inactive	
CC(C)CNC(=O)CN(c1ccc(Cl)c(C(F)(F)F)c1)S(C)(=O)=O	inactive	
C#CC(c1ccccc1)(c1ccccc1)n1ccnc1	inactive	
Cc1ccc2c(Br)cc(Br)c(O)c2n1	inconclusive: 3.61 µM [inhibitor, partial curve]	
CCCNc1c(NC(=O)Cc2ccccc2)c(=O)oc2ccccc12	inactive	
O=C(O)CN1CCCCC1	inconclusive: 5.62 µM [inhibitor, full curve]	
COCCOc1cc(NC(=O)c2ccccc2)c(Cl)cc1Cl	inactive	
O=C(c1ccc(S(=O)(=O)c2cccc(Cl)c2)c([N+](=O)[O-])c1)N1CCN(c2ccccn2)CC1	inactive	
Fc1ccccc1NC(=S)N1CCOCC1	inactive	
CCC(=O)Nc1ccccc1-c1nc2ccccc2n(C(CC)C(=O)Nc2cccc(Cl)c2)c1=O (centres undefined)	inactive	
COc1ccccc1-c1cc2c(Nc3cccc(S(C)(=O)=O)c3)nccc2[nH]1	inconclusive: 100 µM [inhibitor, single point]	
O=C(CSc1ncc(-c2ccc(F)cc2)o1)NC(=O)c1ccccc1	inactive	
Oc1ccc(C[C@@H](CN2CCCC2CN2C(=S)NC[C@@H]2Cc2ccccc2)N2C[C@H](Cc3ccccc3)N(CC3CCCCCC3)C2=S)cc1 (some centres undefined)	inconclusive: 22.4 µM [inhibitor, partial curve]	
COc1ccc(S(=O)(=O)CCC(=O)Nc2ccc(OC)cc2OC)cc1	inconclusive: 8.91 µM [inhibitor, full curve]	

Random excerpt: 4 records from the list.
Structure (SMILES)	Potency	activity change, negative = inhibition
CCNC(=S)NS(=O)(=O)c1ccccc1	inconclusive: 4.47 µM [inhibitor, full curve, poor fit]	
COc1ccc(S(=O)(=O)CCC(=O)Nc2ccc(OC)cc2OC)cc1	inconclusive: 8.91 µM [inhibitor, full curve]	
O=C(O)C1CC(CCCP(=O)(O)O)CCN1 (centres undefined)	inconclusive: 5.01 µM [inhibitor, full curve, poor fit]	
Cc1cc2cc(CN(Cc3ccco3)C(=O)C3CCCCC3)c(=O)[nH]c2cc1C	inconclusive: 112 µM [inhibitor, single point]	
